Reference: patent publication US20090075902A1, “INHIBITING THE SIGNS OF AGING BY INHIBITING NF-KAPPA B ACTIVATION” (priority 2007, published 2009)
Where no end group is shown, it is not given here.

Tested on: mouse skin
Assay: PTD transduction through skin (FITC-labeled PTDs, confocal microscopy)
Format: in vivo
Settings: FITC-labeled PTD 5 mM in standard base cream, hairless (nude) mice, 3 hr

With “KKKKKKKK (SEQ ID NO:5) [8K, fluorescently labeled protein transduction domain]” the “Penetration of mouse skin” value was “penetrate mouse skin”.
“Arg-Arg-Arg-Arg-Arg-Arg (SEQ ID NO:4) [6-R]” was tested, and the “Penetration of mouse skin” value was “penetrate mouse skin”.
For “ARFLEHGSDKAT (SEQ ID NO:6) [Con-P, fluorescently labeled protein transduction domain]”, the “Penetration of mouse skin” value was “penetrate mouse skin”.
In the case of “His-His-His-His-His-His (SEQ ID NO: 3) (HHHHHH; fluorescent label) [6-His, fluorescently labeled protein transduction domain]”, the “Penetration of mouse skin” value is reported as “penetrate mouse skin”.
